## Library compounds against nucleic acid targets

Data from the ROBIN nucleic acid binder screens, doi:10.1002/anie.202211358.

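Compounds were printed on reactive glass slides in duplicate spots, a dye-labelled oligonucleotide was laid over them, and the fluorescence left after washing was read. For the PreQ1, TPP and SAM-II riboswitches the laboratory earlier reported (doi:10.1038/s41467-019-09493-3) 1 µM RNA, 2 h, and a rule that included a mean Z-score above 3 (spot signal-to-noise against the whole library), a score well above that on a control array, and duplicate spots agreeing (coefficient of variation under 100). The data file gives only the calls; its cut-offs may differ, and compounds hitting several targets are kept. These are primary screening calls, not affinities; a compound without a hit may have attached poorly or may still bind in solution.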 “Y” means called a hit, “N” means screened and not called a hit. The compounds are a random part of those screened. A dash means that no call is listed here.

Targets, with sequences 5′ to 3′:
SAM-II: SAM-II riboswitch RNA pseudoknot, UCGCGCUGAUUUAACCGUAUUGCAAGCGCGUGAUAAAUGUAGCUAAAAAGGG. About 21,000 compounds screened, about 200 hits.
PreQ1: PreQ1 riboswitch RNA pseudoknot, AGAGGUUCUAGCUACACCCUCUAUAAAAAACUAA. From B. subtilis. About 24,000 compounds screened, about 170 hits.
TPP: TPP riboswitch RNA three-way junction, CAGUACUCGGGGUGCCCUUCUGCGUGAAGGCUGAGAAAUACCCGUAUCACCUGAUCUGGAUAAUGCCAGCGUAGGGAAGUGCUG. About 24,000 compounds screened, about 160 hits.

SMILES,SAM-II,PreQ1,TPP
Cc1ccoc1C(=O)N1Cc2cnn(CCO)c2C1,N,N,N
CCCc1n[nH]c2c1C(c1ccc(C(C)C)cc1)C(C#N)=C(N)O2 (stereo not shown),N,N,N
N=c1c2c3c(sc2ncn1CCCO)CCCC3,N,N,N
N[C@H]1CC[C@@H](n2cc(C(=O)NCCc3nc(-c4ccccc4)n[nH]3)nn2)CC1,N,N,N
O=C(O)C1CCCN(CCC=C(c2ccccc2)c2ccccc2)C1 (stereo not shown),N,N,N
C=C(CO)C1Cc2c(ccc3ccc(=O)oc23)O1 (stereo not shown),N,N,N
COc1cccc(OCC(O)CNc2nc(CCN)nc3ccccc23)c1 (stereo not shown),N,N,N
CC(C)(C)NCC(O)COC1CCCC1.Cl (stereo not shown),N,N,N
CC(O)c1cccc(N(C)Cc2cccc(-n3cccn3)c2)n1 (stereo not shown),N,N,N
COc1ccccc1N1CCN(CCN(C(=O)C2CCCCC2)c2ccccn2)CC1,N,N,N
CCCC(NC(=O)C1CNC1)c1ccccc1 (stereo not shown),N,N,N
OCCCn1c(-c2ccccc2)cn2c(-c3ccccc3)c(-c3ccccc3)nc12,N,N,N
CC(C)n1cc(C(=O)NCC[C@H](O)C(=O)O)cn1,N,N,N
N#Cc1c2c(c(NCc3ccccn3)n3c1nc1ccccc13)CCCC2,-,N,N
Nc1ncc(CN2CCC3(CCCN(C(=O)CCC4CCCC4)C3)C2)cn1 (stereo not shown),N,N,N
NCC(=O)N1CCc2nc(-c3ccco3)nc(N3CC=CCC3)c2CC1,N,N,N
Cc1ccc2[nH]cc(C(O)CN3CCCCC3)c2c1 (stereo not shown),-,N,N
C[C@]12CCC(=O)C=C1[C@@H]1C[C@H]1[C@H]1[C@H]3[C@@H]4C[C@H]4[C@@]4(CCC(=O)O4)[C@@]3(C)CC[C@H]12,N,N,N
CCc1ccc(CNC(=O)c2nn(-c3ccc(F)cc3)nc2CO)cc1,-,N,N
Oc1cccc2cnccc12,N,N,N
c1ccc(-c2ccnc(N3CCCC4(CCNC4)C3)n2)nc1 (stereo not shown),N,N,N
Cc1cc(-c2cc(S(=O)(=O)N3C[C@H](C4CC4)[C@@H](N)C3)c(C)s2)[nH]n1,N,N,N
COc1ccc(Nc2ncnc3c2nc2n3CCCC2)cc1Cl,-,N,N
COc1ccc(C2(C(=O)N3CCCC(O)(CO)C3)CC2)cc1 (stereo not shown),N,N,N
O=C1CC(c2cc(C#CCO)cs2)c2c(nc3ccccn23)CN1 (stereo not shown),N,N,N
Nc1nc(CCCNC(=O)c2c[nH]nc2C2CCCCC2)cs1,N,N,N
COC(=O)C1=C(C)OC(N)=C(C#N)C1c1cccs1 (stereo not shown),N,N,N
CC(C)(CO)NCc1cccc(OCc2ccc(Cl)cc2)c1,N,N,N
CCn1cnnc1CCNC1CSCCSC1,N,N,N
CCOc1ccccc1NC(c1ccc(F)cc1)c1nnc(-c2ccccc2)o1 (stereo not shown),N,N,N
COc1ccc(-c2coc3cc(O)cc(O)c3c2=O)cc1,N,N,N
O=C(c1ccc(C2CCCNC2)cc1)N1CCCCCCC1 (stereo not shown),N,N,N
C#Cc1cccc(Nc2ncnc3cc(OCCOC)c(OCCO)cc23)c1,N,N,N
Cc1cc(C)c2c(N)c(-c3ccncc3)sc2n1,N,N,N
CCCn1cnc2cc(NCc3ccccc3Cl)ccc21,N,N,N
Cc1[nH]nc2c1C(c1cccc(Br)c1)C(C#N)=C(N)O2 (stereo not shown),N,N,N
COc1cccc(-c2ccc3c(N)c(C(=O)Nc4ccccc4Br)sc3n2)c1,N,N,N
Nc1ccnn1Cc1ccc(F)cc1,N,N,N
Fc1ccc(Nc2nc3ccccc3c3nncn23)cc1Cl,N,N,N
C=CCNC(=S)N1CCN(c2ccccc2Cl)CC1,N,N,N
OCc1nc2ccccc2n1CCCCOc1ccccc1Cl,N,N,N
Cc1cccc(C=NNc2cc(N3CCOCC3)nc(OCCc3ccccn3)n2)c1,N,N,N
CC1CCC(Nc2c(-c3cccc(Br)c3)[nH]c3c(C#N)cnn23)CC1 (stereo not shown),-,N,N
CC(Cc1cccc(F)c1)NCc1nnc(-c2ccccc2)o1 (stereo not shown),N,N,N
CC(C)N1C[C@H](NC(=O)Nc2cccc(-c3nc4ncccc4o3)c2)[C@@H](O)C1,N,N,N
Cc1ccccc1-c1noc(CN[C@H](C(N)=O)[C@@H](C)O)n1,N,N,N
O=c1cc(CN2CCCC(O)(CO)C2)nc2ccc(Cl)cn12 (stereo not shown),N,N,N
OC1(CNCCOCc2ccc(Cl)cc2)CCCNC1 (stereo not shown),N,N,N
C=CCNc1oc(C=Cc2cc(OC)c(OC)c(OC)c2)nc1C#N,-,N,N
O=C(Nc1c(Cl)cncc1Cl)c1ccc(OC(F)F)c(OCC2CC2)c1,N,N,N
CNc1ncc(CN(C)C(=O)c2ccccc2C2CCNC2)cn1 (stereo not shown),N,N,N
Cc1ccc(CN2c3ccccc3C3=C(C(c4cccnc4)C(C#N)=C(N)O3)S2(=O)=O)cc1 (stereo not shown),-,N,N
c1cnc(Oc2cccc(CNCc3ccc4c(c3)OCO4)c2)nc1,N,N,N
Nc1cc(-c2ccc(S(=O)(=O)CCC(=O)O)cc2)c2cc[nH]c2n1,N,N,N
CCc1nc2ccccc2n1CCC(=O)N1CCC(N2CCC(O)CC2)CC1,N,N,N
Cl.OC(COCc1ccc(Cl)cc1)CN1CCOCC1 (stereo not shown),N,N,N
Cc1ccccc1Nc1c(-c2cccc(O)c2)nc2cnccn12,-,N,N
COc1ccc(N2C(=O)CC(Sc3nnc(N)s3)C2=O)cc1 (stereo not shown),N,N,N
C=CC[N+]1([C@H]2C[C@H]3[C@@H]4CC[C@H]5C[C@H](O)[C@@H](N6CCOCC6)C[C@]5(C)[C@@H]4CC[C@]3(C)[C@H]2OC(C)=O)CCCC1,N,N,N
CCS(=O)(=O)N1CCN(c2cc(C)nc(Nc3ccc(C)cc3)n2)CC1,-,N,N
CCOC(=O)N1CCC(NCc2cc3c(nc2OC)CN(CC)C3=O)C1 (stereo not shown),N,N,N
N#Cc1c(-c2ccc(O)cc2)c(C#N)c2nc3ccccc3n2c1N,N,N,N
Cc1cc(N2CCCN(C[C@H]3[C@@H]4CNC[C@@H]43)CC2)ccn1,N,N,N
CCOC(=O)c1nnsc1-c1ccc(-c2snnc2C(=O)OCC)cc1,N,N,N
COc1ccc(N2CCN(C(=O)[C@@H]3C[C@@H](O)CN3)CC2(C)C)cc1,N,N,N
COc1ccc([C@H]2C[C@@H](c3ccc(Cl)cc3)Nc3nc(N)nn32)cc1,N,N,N
COc1ccc(C2C(C#N)=C(N)Oc3cc(O)ccc32)cc1Cl (stereo not shown),N,N,N
C[C@@H]1CN(Cc2nnnn2CC(=O)NCCc2csc(N)n2)C[C@H](C)O1,N,N,N
CNS(=O)(=O)CCc1ccc2[nH]cc(C3CCN(C)CC3)c2c1,N,N,N
CN(Cc1csc(-c2cccs2)n1)C(=O)C(O)c1ccc(F)cc1 (stereo not shown),N,N,N
CCOC(=O)C1CCN(c2c(Nc3ccc(OCC)cc3)c(=O)c2=O)CC1,N,N,N
O=C1CC(Nc2ccc(N3CCOCC3)cc2)C(=O)N1c1ccccc1Cl (stereo not shown),N,N,N
OCCn1nc(Cc2c(Cl)cccc2Cl)nc1C1CCC1,N,N,N
Cc1cc(N2CCC(NCC3(COc4ccccc4)CC3)CC2)nc(N)n1,N,N,N

The first 4 entries again:

SMILES,SAM-II,PreQ1,TPP
Cc1ccoc1C(=O)N1Cc2cnn(CCO)c2C1,N,N,N
CCCc1n[nH]c2c1C(c1ccc(C(C)C)cc1)C(C#N)=C(N)O2 (stereo not shown),N,N,N
N=c1c2c3c(sc2ncn1CCCO)CCCC3,N,N,N
N[C@H]1CC[C@@H](n2cc(C(=O)NCCc3nc(-c4ccccc4)n[nH]3)nn2)CC1,N,N,N